In assay [1] the target is T1, minispryn (mouse (endogenous in heart)) (UniProt Q8BZ52).
T1 sequence: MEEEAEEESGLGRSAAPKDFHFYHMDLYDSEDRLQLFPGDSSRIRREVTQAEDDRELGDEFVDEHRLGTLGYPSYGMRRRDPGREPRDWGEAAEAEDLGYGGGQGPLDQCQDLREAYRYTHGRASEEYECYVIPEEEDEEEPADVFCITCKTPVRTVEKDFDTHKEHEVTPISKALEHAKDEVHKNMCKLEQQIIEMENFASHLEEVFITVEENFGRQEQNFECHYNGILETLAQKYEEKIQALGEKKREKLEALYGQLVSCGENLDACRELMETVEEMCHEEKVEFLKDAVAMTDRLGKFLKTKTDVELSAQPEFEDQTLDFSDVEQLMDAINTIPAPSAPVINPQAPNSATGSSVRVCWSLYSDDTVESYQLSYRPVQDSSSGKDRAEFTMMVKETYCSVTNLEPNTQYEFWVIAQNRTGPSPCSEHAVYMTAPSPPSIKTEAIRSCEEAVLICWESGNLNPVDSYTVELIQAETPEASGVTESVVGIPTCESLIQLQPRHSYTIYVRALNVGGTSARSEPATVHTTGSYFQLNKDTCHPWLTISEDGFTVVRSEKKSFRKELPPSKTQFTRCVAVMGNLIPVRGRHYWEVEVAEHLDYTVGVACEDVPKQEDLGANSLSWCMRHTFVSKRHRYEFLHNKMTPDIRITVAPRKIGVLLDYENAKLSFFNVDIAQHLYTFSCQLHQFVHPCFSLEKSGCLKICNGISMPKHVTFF
Put plainly: co-IP; RIPA extracts of cardiac muscle and of skeletal muscle; immunoprecipitated with anti-myospryn or anti-minispryn antisera, detected by immunoblot; unrelated IgG as control.

By UniProt entry, the sequences of proteins in these tests, tags left out.
UniProt Q70KF4: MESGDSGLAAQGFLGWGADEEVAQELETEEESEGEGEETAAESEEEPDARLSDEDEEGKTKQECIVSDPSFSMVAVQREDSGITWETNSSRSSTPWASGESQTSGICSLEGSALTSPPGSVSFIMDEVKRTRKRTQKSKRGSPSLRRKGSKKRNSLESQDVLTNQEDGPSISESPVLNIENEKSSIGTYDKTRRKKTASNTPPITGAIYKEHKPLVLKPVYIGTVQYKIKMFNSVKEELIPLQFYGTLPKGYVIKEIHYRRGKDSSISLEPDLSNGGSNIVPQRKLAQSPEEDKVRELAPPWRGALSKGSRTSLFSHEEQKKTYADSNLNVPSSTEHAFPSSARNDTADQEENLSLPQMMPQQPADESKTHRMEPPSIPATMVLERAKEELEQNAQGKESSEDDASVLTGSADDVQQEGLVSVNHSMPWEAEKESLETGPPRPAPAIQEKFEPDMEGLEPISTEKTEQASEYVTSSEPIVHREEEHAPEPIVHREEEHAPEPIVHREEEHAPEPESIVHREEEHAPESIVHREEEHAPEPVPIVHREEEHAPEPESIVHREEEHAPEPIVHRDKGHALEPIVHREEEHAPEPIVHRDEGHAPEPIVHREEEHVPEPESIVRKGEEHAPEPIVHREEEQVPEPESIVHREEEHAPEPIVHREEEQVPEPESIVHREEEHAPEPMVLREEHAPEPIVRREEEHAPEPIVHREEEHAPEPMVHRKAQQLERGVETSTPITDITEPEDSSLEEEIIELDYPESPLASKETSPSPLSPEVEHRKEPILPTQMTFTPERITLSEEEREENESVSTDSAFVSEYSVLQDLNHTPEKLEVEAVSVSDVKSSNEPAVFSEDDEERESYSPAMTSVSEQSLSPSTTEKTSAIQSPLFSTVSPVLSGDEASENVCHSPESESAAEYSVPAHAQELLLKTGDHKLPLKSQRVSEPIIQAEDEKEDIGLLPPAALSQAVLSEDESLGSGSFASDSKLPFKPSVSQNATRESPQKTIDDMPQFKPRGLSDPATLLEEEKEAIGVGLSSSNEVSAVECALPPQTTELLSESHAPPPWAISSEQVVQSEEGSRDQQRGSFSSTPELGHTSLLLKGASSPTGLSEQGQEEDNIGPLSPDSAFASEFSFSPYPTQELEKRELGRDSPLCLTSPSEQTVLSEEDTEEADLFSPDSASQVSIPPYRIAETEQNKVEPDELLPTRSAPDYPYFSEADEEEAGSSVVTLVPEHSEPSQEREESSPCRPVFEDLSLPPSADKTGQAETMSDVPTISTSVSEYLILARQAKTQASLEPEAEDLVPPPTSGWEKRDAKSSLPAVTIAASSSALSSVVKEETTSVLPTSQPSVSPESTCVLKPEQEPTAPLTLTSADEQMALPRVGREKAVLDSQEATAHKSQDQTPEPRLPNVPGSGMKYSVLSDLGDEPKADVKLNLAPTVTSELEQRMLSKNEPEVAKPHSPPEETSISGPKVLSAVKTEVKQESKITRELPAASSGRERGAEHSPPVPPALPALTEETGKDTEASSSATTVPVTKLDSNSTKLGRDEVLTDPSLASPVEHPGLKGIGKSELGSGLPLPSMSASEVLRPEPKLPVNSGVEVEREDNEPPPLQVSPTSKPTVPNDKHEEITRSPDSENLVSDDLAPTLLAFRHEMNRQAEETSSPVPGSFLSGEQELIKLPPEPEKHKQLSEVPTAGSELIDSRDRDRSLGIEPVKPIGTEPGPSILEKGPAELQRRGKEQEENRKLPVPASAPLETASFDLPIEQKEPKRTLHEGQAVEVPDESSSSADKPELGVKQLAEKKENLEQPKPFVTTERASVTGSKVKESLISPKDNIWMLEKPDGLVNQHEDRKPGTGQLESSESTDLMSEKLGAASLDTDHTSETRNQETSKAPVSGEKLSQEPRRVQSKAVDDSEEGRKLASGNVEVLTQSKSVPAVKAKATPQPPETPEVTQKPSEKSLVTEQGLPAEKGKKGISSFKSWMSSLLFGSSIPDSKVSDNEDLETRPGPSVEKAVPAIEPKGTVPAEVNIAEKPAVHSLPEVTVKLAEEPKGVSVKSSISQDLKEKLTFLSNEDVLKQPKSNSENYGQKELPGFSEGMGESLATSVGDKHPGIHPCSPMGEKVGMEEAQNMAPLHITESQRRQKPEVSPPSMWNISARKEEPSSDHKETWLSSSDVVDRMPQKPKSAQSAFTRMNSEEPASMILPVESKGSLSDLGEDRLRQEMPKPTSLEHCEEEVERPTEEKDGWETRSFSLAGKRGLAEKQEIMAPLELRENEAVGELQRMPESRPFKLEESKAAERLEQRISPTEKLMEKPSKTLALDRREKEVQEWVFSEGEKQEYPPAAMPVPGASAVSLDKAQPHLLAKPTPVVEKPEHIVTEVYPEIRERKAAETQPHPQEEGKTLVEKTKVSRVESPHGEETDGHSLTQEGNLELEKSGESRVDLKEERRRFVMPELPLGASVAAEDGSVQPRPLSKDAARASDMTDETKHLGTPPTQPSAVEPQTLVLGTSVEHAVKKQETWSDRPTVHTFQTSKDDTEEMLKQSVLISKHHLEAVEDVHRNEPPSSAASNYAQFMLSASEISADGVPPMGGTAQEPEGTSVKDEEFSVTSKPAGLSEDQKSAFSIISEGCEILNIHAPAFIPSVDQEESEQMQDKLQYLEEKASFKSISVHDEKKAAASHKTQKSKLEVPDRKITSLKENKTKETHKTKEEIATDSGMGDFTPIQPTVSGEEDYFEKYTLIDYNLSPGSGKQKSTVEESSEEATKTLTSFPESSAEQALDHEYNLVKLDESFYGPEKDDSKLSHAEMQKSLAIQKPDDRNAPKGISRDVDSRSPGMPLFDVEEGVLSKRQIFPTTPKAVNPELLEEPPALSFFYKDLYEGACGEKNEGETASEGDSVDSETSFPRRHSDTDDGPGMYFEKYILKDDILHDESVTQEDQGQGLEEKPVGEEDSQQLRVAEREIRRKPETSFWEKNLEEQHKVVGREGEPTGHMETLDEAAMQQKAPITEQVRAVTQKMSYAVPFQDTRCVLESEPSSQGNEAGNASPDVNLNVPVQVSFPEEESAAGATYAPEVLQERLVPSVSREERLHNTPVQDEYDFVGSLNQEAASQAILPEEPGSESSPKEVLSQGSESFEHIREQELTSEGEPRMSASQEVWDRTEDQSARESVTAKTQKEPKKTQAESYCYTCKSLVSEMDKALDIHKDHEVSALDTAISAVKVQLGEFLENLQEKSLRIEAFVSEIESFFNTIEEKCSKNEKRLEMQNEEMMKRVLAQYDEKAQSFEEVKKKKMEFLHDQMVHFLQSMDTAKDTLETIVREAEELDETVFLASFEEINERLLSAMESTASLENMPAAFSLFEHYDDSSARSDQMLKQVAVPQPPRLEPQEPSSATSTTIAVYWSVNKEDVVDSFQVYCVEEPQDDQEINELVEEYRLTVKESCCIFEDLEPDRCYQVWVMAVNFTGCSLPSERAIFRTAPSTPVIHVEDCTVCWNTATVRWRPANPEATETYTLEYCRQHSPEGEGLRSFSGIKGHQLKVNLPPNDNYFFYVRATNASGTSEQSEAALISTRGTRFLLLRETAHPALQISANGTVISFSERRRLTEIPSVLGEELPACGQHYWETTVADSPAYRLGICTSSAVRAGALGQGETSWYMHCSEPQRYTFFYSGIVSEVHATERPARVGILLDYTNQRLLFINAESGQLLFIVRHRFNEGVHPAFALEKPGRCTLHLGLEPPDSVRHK

The target of assay [2] is myospryn (mouse (endogenous in heart)) (UniProt Q70KF4). The assay is described as above.

These are yes or no findings as the source states them, for the method shown. Binding seen in cells or lysates may run through a third protein. Some results given as binding are weak or reduced against the parent protein; the word gives no strength.

For myospryn (from UniProt Q70KF4 1-3739), in assay [1], the binding entry is recorded as “binds”.

B1: minispryn (protein, UniProt Q8BZ52 1-716)
chain: MEEEAEEESGLGRSAAPKDFHFYHMDLYDSEDRLQLFPGDSSRIRREVTQAEDDRELGDEFVDEHRLGTLGYPSYGMRRRDPGREPRDWGEAAEAEDLGYGGGQGPLDQCQDLREAYRYTHGRASEEYECYVIPEEEDEEEPADVFCITCKTPVRTVEKDFDTHKEHEVTPISKALEHAKDEVHKNMCKLEQQIIEMENFASHLEEVFITVEENFGRQEQNFECHYNGILETLAQKYEEKIQALGEKKREKLEALYGQLVSCGENLDACRELMETVEEMCHEEKVEFLKDAVAMTDRLGKFLKTKTDVELSAQPEFEDQTLDFSDVEQLMDAINTIPAPSAPVINPQAPNSATGSSVRVCWSLYSDDTVESYQLSYRPVQDSSSGKDRAEFTMMVKETYCSVTNLEPNTQYEFWVIAQNRTGPSPCSEHAVYMTAPSPPSIKTEAIRSCEEAVLICWESGNLNPVDSYTVELIQAETPEASGVTESVVGIPTCESLIQLQPRHSYTIYVRALNVGGTSARSEPATVHTTGSYFQLNKDTCHPWLTISEDGFTVVRSEKKSFRKELPPSKTQFTRCVAVMGNLIPVRGRHYWEVEVAEHLDYTVGVACEDVPKQEDLGANSLSWCMRHTFVSKRHRYEFLHNKMTPDIRITVAPRKIGVLLDYENAKLSFFNVDIAQHLYTFSCQLHQFVHPCFSLEKSGCLKICNGISMPKHVTFF
Consider B1, for which the binding entry in assay [2] is “binds”.
